Experimental findings from PubChem BioAssay AID258 (DTP/NCI, 2004) are described below.

Each structure is given as a SMILES string. The list shows only some results of the screen, not a fair sample: it gathers tests that were run many times, whatever their T/C, doses with no T/C, and many T/C values between a quarter and a half above the control. Other doses and runs of a compound stand elsewhere. T/C: endpoint of the treated group in % of that of the vehicle group. Some entries give survivors of the animals treated and no T/C: the source files T/C as zero there, which appears to mark a toxic dose or a test without result, not a measured value. Some survivor counts are full or nearly so, which does not show that the dose was tolerated: the source hardly ever lists a survival T/C far under the control, and the zero likely stands for such cases as well. Counts of survivors are from the toxicity check (mostly the fifth day) where no day follows; animals may have died later. Schedule codes are those of the source, taken here to give the interval after Q, in days (D) or hours (H), and the number of doses after X. Some entries were tested several times; the results are listed from low to high. Some schedule codes hold Z or #, which are not explained here. For survival time, the PubChem record calls one and a half times the control and up active, and a quarter to a half above the control has no call in these data; cut-offs in other NCI protocols can differ. Some T/C values carry the count of animals alive at the toxicity check (mostly the fifth day); without a count, all were alive then.

This assay concerns CD2F1 mice, L1210 leukemia sc, survival T/C. Nature of the assay: NCI In Vivo Anticancer Drug Screen. Data for tumor model L1210 Leukemia (subcutaneous) in CD2F1 (CDF1) mice. The following applies: T/C endpoint: median survival time, higher T/C = longer survival. The method, then:
The antitumor activity of compounds was measured in mice bearing transplantable tumors. Survival or tumor size were measured and the results are expressed as the measurement made in the treated group (T) divided by the measurement made in the vehicle treated control group (C). The tumor model used in this assay is L1210 Leukemia (subcutaneous) in CD2F1 (CDF1) mice

[1] abbreviates: dose: 12.5 mg/kg/injection, schedule: Q01DX009 (ip), vehicle: Klucel (hydroxypropylcellulose) (HPC).

On to `O=C(O)CCCc1ccc(N(CCCl)CCCl)cc1`, for which the survivor count is 2 of 10 (dose: 1.5 mg/kg/injection, schedule: Q01DX009 (sc), vehicle: saline with Tween-80); 5 of 10 (dose: 3.0 mg/kg/injection, schedule: Q01DX009 (sc), vehicle: saline with Tween-80); 5 of 10 (dose: 6.0 mg/kg/injection, schedule: Q01DX009 (sc), vehicle: saline with Tween-80); 6 of 10 (dose: 12.0 mg/kg/injection, schedule: Q01DX009 (sc), vehicle: saline with Tween-80); 7 of 10 (dose: 24.0 mg/kg/injection, schedule: Q01DX009 (ip), vehicle: saline with Tween-80); 5 of 10 (dose: 24.0 mg/kg/injection, schedule: Q01DX009 (sc), vehicle: saline with Tween-80). Moreover, the survivor count (dose: 48.0 mg/kg/injection, schedule: Q01DX009 (ip), vehicle: saline with Tween-80) is 0 of 10 and the survivor count (dose: 48.0 mg/kg/injection, schedule: Q01DX009 (sc), vehicle: saline with Tween-80) is given as 0 of 10.

With `[Cl][Pt+2][Cl].[NH-]CC1(C[NH-])CCC1`, the T/C runs as follows: (dose: 0.78 mg/kg/injection, schedule: Q01DX009 (ip), vehicle: Klucel (hydroxypropylcellulose) (HPC), evaluated on day 30) 104 and 108 % of control; (dose: 0.78 mg/kg/injection, schedule: Q01DX009 (ip), vehicle: Klucel (hydroxypropylcellulose) (HPC), evaluated on day 60) 102 % of control; (dose: 1.56 mg/kg/injection, schedule: Q01DX009 (ip), vehicle: Klucel (hydroxypropylcellulose) (HPC), evaluated on day 30) 112 and 136 % of control; (dose: 1.56 mg/kg/injection, schedule: Q01DX009 (ip), vehicle: Klucel (hydroxypropylcellulose) (HPC), evaluated on day 60) 112 % of control; (dose: 3.13 mg/kg/injection, schedule: Q01DX009 (ip), vehicle: Klucel (hydroxypropylcellulose) (HPC)) 132 and 146 % of control; (dose: 6.25 mg/kg/injection, schedule: Q01DX009 (ip), vehicle: Klucel (hydroxypropylcellulose) (HPC), evaluated on day 30) 105 and 159 % of control. For the same molecule, the T/C (dose: 6.25 mg/kg/injection, schedule: Q01DX009 (ip), vehicle: Klucel (hydroxypropylcellulose) (HPC), evaluated on day 60) is 188 % of control and the T/C under setting [1] was 97 % of control. In addition, the survivor count under setting [1] is 7 of 10 and 10 of 10.

For `CCOS(C)(=O)=O`, the survivor count (dose: 14.0 mg/kg/injection, schedule: Q01DX Z (sc), vehicle: saline) is 1 of 10; the survivor count (dose: 23.0 mg/kg/injection, schedule: Q01DX Z (sc), vehicle: saline) was 0 of 10; the survivor count (dose: 39.0 mg/kg/injection, schedule: Q01DX Z (sc), vehicle: saline) is 0 of 10; the survivor count (dose: 65.0 mg/kg/injection, schedule: Q01DX Z (sc), vehicle: saline) is 2 of 10; the survivor count (dose: 108.0 mg/kg/injection, schedule: Q01DX Z (sc), vehicle: saline) is listed as 1 of 10; the survivor count (dose: 180.0 mg/kg/injection, schedule: Q01DX Z (sc), vehicle: saline) was 2 of 10. Also, the survivor count (dose: 300.0 mg/kg/injection, schedule: Q01DX Z (sc), vehicle: saline) is given as 1 of 10.

With `OC(CBr)C(O)C(O)C(O)CBr` (configuration not stated), the survivor count (dose: 65.0 mg/kg/injection, schedule: Q01DX Z (sc), vehicle: carboxymethylcellulose (CMC)) is 5 of 8; the survivor count (dose: 80.0 mg/kg/injection, schedule: Q01DX009 (sc), vehicle: saline with Tween-80) is 4 of 10; the survivor count (dose: 180.0 mg/kg/injection, schedule: Q01DX Z (sc), vehicle: carboxymethylcellulose (CMC)) is recorded as 4 of 8; the survivor count (dose: 640.0 mg/kg/injection, schedule: Q01DX009 (sc), vehicle: saline + alcohol) is given as 10 of 10. Further, the T/C was 125 % of control (dose: 160.0 mg/kg/injection, schedule: Q01DX009 (ip), vehicle: saline); 134 % of control (dose: 320.0 mg/kg/injection, schedule: Q01DX009 (ip), vehicle: saline with Tween-80); 145 % of control (dose: 320.0 mg/kg/injection, schedule: Q01DX009 (ip), vehicle: saline); 131 % of control [9 of 10 alive] (dose: 320.0 mg/kg/injection, schedule: Q01DX009 (sc), vehicle: saline + alcohol); 145 % of control [9 of 10 alive] (dose: 640.0 mg/kg/injection, schedule: Q01DX009 (ip), vehicle: saline).

For the molecule `Cc1cccnc1`, the survivor count runs as follows: (dose: 39.0 mg/kg/injection, schedule: Q01DX Z (sc), vehicle: water) 6 of 10; (dose: 65.0 mg/kg/injection, schedule: Q01DX Z (sc), vehicle: water) 5 of 10; (dose: 300.0 mg/kg/injection, schedule: Q01DX Z (sc), vehicle: water) 5 of 10; (dose: 500.0 mg/kg/injection, schedule: Q01DX Z (sc), vehicle: water) 2 of 10.
